At least one structure is not confirmed: it was looked up by name or label, or the drawing left a doubt.
Test system: PPCM patients
Assay: Follow up of PPCM patients under medical therapy (plasma PAI-1 by ELISA, LVEF)
Assay type: in vivo, human
Settings: for cardiac function (LVEF) / plasma PAI-1 level: PPCM patients, 6 months follow up vs baseline (n=17), Bromocriptine (1 week to 6 weeks) together with beta-blockers and ACE-inhibitors or ARB

With `CC(C)C[C@H]1C(=O)N2CCC[C@H]2[C@]2(O)O[C@](NC(=O)[C@@H]3C=C4c5cccc6[nH]c(Br)c(c56)C[C@H]4N(C)C3)(C(C)C)C(=O)N12` [Bromocriptine, bromocriptine] the “cardiac function (LVEF)” value was “increased”, the “plasma PAI-1 level” value was “decrease” and the “cardiac function (LVEF)” value (listed as bromocriptine) was “increase”. The “plasma PAI-1 level” value (listed as bromocriptine) was “substantial decrease” and the “cardiac function and relapse after delivery of a subsequent pregnancy” value (three PPCM patients with high risk for relapse, Bromocriptine with beta-blocker, ACE-inhibitors and anti-coagulation therapy as soon as possible after delivery) was “maintained cardiac function and no relapse”.
